Assay results reported in patent US20150344583A1.
Numbering of substitutions follows the chain as printed. Results are given in words; binding and its absence hold for the method and conditions named. Some entries that bind do so weakly or less than the wild type.

Protein sequences, listed by entry. Tags and fused reporters are not part of them. Lines headed by an entry give the natural chain unless they say otherwise; changes in a name come on top.
UniProt Q02223: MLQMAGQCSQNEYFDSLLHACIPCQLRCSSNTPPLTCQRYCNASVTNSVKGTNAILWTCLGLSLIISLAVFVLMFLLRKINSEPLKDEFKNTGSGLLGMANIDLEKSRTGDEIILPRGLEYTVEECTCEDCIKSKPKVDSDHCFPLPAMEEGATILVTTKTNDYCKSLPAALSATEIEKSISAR

What was measured:
[1] = target: human BCMA (huBCMA) on cells (human) (UniProt Q02223); assay: FMAT and FACS screening, second campaign
[2] = target: rhuBCMA fusion protein (6xHis::Sumo::huBCMA(aa 5-51)::GGS::G3::Avi) (human); assay: size exclusion chromatography (S200, PBS), UV trace in mAU against ml; 500 ug antibody incubated with 500 ug Sumo-BCMA
[3] = target: cynomolgus (Macaca fascicularis) BCMA on cells (cynomolgus (Macaca fascicularis)); assay: FACS on 293T cells transiently transfected with cynomolgus BCMA
[4] = target: clipped form of Sumo-huBCMA, SEQ ID NO:355 (human); assay: SEC chromatograms
[5] = target: clipped form of Sumo-huBCMA, SEQ ID NO:356 (human); assay: SEC chromatograms
[6] = target: rhuBCMA fusion protein (6xHis::Sumo::huBCMA(aa 5-51)::GGS::G3::Avi) (human); assay: SEC chromatograms
[7] = target: clipped form of Sumo-huBCMA, SEQ ID NO:354 (human); assay: SEC chromatograms
[8] = target: clipped form of Sumo-huBCMA, SEQ ID NO:356 (human); assay: LC/MS chromatogram
[9] = target: clipped form of Sumo-huBCMA, SEQ ID NO:357 (human); assay: LC/MS chromatogram
[10] = target: clipped form of Sumo-huBCMA, SEQ ID NO:358 (human); assay: LC/MS chromatogram
[11] = target: clipped form of Sumo-huBCMA, SEQ ID NO:354 (human); assay: LC/MS chromatogram
[12] = target: clipped form of Sumo-huBCMA, SEQ ID NO:356 (human); assay: SEC, then LC/MS of the antibody-bound peak
[13] = target: clipped form of Sumo-huBCMA, SEQ ID NO:357 (human); assay: SEC, then LC/MS of the antibody-bound peak
[14] = target: clipped form of Sumo-huBCMA, SEQ ID NO:358 (human); assay: SEC, then LC/MS of the antibody-bound peak
[15] = target: rhuBCMA fusion protein (6xHis::Sumo::huBCMA(aa 5-51)::GGS::G3::Avi) (human); assay: SEC, then LC/MS of the antibody-bound peak
[16] = target: clipped form of Sumo-huBCMA, SEQ ID NO:354 (human); assay: SEC, then LC/MS of the antibody-bound peak
[17] = target: human BCMA (huBCMA) on cells (human) (UniProt Q02223); assay: FACS on H929 cells
[18] = target: clipped form of Sumo-huBCMA, SEQ ID NO:356 (human); assay: LC/MS (ESI-TOF, deconvoluted mass) of the reduced SEC fraction of 29C12 + sumoBCMA [lower panel]
[19] = target: clipped form of Sumo-huBCMA, SEQ ID NO:357 (human); assay: as above
[20] = target: clipped form of Sumo-huBCMA, SEQ ID NO:358 (human); assay: as above
[21] = target: rhuBCMA fusion protein (6xHis::Sumo::huBCMA(aa 5-51)::GGS::G3::Avi) (human); assay: as above
[22] = target: clipped form of Sumo-huBCMA, SEQ ID NO:354 (human); assay: as above
[23] = target: clipped form of Sumo-huBCMA, SEQ ID NO:355 (human); assay: SEC of antibody and Sumo-BCMA mixtures
[24] = target: clipped form of Sumo-huBCMA, SEQ ID NO:356 (human); assay: SEC of antibody and Sumo-BCMA mixtures
[25] = target: rhuBCMA fusion protein (6xHis::Sumo::huBCMA(aa 5-51)::GGS::G3::Avi) (human); assay: SEC of antibody and Sumo-BCMA mixtures
[26] = target: clipped form of Sumo-huBCMA, SEQ ID NO:354 (human); assay: SEC of antibody and Sumo-BCMA mixtures
[27] = target: cynomolgus (Macaca fascicularis) BCMA on cells (cynomolgus (Macaca fascicularis)); assay: FACS
[28] = target: cynomolgus (Macaca fascicularis) BCMA on cells (cynomolgus (Macaca fascicularis)); assay: FACS screening, second campaign
[29] = target: cynomolgus (Macaca fascicularis) BCMA on cells (cynomolgus (Macaca fascicularis)); assay: FACS on cynomolgus BCMA transfected 293T cells

Measured: binding

B1: 29C12 (antibody, V domains shown)
VH: EVQLLESGGALVQPGGSLRLSCAASGFTFSSYAMNWVRQAPGKGLEWVSAISVGGDTYYADSVKGRFTISRDNSKNTLYLQMNSLRAEDTAVYYCAKDQVTMVRGVWYYYGLDVWGQGTTVTVSS
VL: DIVMIQSPLSLPVTPGEPASISCRSSQSLLHSNGNNYLDWYLQKPGQSPHLLISLGSNRTSGVPDRFSGSGSGTDFTLKISRVEAEDVGVYYCMQALQPPRRFGQGTKLEIKR
binds: all assays above

B2: 32B5 (antibody, V domains shown)
VH: B1 VH with Q81H, M82V, R86S, T90S, M102L
VL: B1 VL with D1V, M4L, V90F
binds: [1] | [3] | [17] | [27] | [28] | [29]
